# Literature values as cited in patent US6906188B2, “Method for synthesizing epothilones and epothilone analogs” (State of Oregon acting by and through the State Board of …, priority 2001, dated 2005).
# At least one read-out could not be matched to a standard name with certainty. For at least one compound, name, drawing or mass did not settle the structure.
# System: tubulin
# Details: cited from earlier work
row,SMILES,"competitive inhibition of Taxol, IC50"
1,C/C(=C\c1csc(C)n1)[C@@H]1C[C@@H]2O[C@@H]2CCC[C@H](C)[C@H](O)[C@@H](C)C(=O)C(C)(C)[C@@H](O)CC(=O)O1 [Epothilone A],almost identical IC50 values
2,C/C(=C\c1csc(C)n1)[C@@H]1C[C@@H]2O[C@]2(C)CCC[C@H](C)[C@H](O)[C@@H](C)C(=O)C(C)(C)[C@@H](O)CC(=O)O1 [Epothilone B],almost identical IC50 values
